No constants are given. Whether binding was seen depends on the method and setting. Some results given as binding are weak or reduced against the parent protein; the word gives no strength.
Tests used:
[1] = molecular target: human CXCR2 on HEK293 cells (human) (UniProt P25025); test: flow cytometry on cells; competition: biotinylated chemokine at its EC50 with varying antagonist on HEK293 cells expressing CXCR1 or CXCR2; the chemokine and the receptor that are blocked; only the binder purified
[2] = molecular target: human CXCR2 on HEK293 cells (human) (UniProt P25025); test: flow cytometry on cells; HEK293 cells stably expressing human CXCR1 or CXCR2, biotinylated chemokine 0.03 to 300 nM, 30 min at 4 °C, CBA buffer (PBS pH 7.4, 1% BSA, 0.1% NaN3), Alexa Fluor 647 streptavidin; only the binder purified

The chains behind the UniProt entries cited, without tags or fusion partners. Residues count along the entry.
UniProt P25025: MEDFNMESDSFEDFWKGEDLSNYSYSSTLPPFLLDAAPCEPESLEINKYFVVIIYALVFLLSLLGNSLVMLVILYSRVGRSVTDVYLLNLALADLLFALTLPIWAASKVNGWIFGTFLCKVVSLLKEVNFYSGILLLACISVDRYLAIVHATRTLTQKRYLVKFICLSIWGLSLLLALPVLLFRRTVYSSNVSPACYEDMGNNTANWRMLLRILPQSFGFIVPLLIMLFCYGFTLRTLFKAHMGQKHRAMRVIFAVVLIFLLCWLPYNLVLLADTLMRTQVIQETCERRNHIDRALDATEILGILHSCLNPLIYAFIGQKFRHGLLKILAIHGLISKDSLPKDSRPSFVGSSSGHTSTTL
UniProt P09341, residues 35-107: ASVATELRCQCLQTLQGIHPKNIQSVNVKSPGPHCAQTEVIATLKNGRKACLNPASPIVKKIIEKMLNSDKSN

Which binding [1] does the source give for “biotinylated hCXCL1 (^NCXCL-G2-AviTag^C) (from UniProt P09341 35-107) (ligand)” here?
The binding was “binds”.

What about the binding [2] of the same substance?
The binding was “binds”.

Reference: PMC5899157
